In the supplement of paper PMC10849652:
The list shows a part of the results.

Protein sequences, listed by entry. Tags and fused reporters are not part of them. Lines headed by an entry give the natural chain unless they say otherwise; changes in a name come on top.
UniProt Q03014: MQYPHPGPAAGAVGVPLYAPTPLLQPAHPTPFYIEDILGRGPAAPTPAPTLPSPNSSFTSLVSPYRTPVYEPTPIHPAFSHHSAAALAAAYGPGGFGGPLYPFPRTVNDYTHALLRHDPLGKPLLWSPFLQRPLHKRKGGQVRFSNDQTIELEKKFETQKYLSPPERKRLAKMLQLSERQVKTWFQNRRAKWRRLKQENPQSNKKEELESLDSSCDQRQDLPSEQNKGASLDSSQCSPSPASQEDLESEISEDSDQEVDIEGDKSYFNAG
UniProt P55795: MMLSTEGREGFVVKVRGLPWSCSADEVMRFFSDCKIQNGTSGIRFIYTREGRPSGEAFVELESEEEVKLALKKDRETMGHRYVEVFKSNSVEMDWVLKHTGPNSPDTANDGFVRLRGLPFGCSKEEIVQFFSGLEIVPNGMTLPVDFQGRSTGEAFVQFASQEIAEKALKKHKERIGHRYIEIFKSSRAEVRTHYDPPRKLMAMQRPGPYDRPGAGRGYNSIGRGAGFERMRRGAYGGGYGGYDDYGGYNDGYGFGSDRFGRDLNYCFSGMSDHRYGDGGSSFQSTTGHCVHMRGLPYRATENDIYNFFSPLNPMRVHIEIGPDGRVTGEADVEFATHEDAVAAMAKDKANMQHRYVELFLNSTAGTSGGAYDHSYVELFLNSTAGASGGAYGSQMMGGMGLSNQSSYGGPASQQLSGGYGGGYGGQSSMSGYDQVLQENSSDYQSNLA
UniProt Q9UMF0: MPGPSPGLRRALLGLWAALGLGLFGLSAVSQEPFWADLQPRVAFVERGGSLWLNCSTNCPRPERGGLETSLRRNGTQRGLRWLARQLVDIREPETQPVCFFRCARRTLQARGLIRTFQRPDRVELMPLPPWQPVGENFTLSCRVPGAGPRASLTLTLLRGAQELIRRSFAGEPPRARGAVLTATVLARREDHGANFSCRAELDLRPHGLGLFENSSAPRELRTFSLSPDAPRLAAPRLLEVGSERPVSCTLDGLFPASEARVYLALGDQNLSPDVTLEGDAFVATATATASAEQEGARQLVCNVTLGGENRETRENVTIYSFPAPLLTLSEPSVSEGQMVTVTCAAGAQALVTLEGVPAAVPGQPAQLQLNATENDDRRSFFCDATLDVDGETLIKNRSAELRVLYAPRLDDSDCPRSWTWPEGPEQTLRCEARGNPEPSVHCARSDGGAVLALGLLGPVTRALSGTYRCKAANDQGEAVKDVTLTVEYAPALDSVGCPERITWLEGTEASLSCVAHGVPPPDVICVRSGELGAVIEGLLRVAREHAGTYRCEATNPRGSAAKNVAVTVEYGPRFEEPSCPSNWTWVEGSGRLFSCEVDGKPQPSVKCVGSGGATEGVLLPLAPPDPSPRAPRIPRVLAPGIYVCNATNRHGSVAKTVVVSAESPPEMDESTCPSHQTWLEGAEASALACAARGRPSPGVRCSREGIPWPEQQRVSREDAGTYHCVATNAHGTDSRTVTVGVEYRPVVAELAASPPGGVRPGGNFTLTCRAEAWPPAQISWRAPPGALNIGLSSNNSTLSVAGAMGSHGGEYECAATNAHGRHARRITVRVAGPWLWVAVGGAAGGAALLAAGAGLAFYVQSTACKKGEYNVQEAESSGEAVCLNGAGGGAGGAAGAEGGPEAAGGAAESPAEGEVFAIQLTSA
UniProt Q53T59: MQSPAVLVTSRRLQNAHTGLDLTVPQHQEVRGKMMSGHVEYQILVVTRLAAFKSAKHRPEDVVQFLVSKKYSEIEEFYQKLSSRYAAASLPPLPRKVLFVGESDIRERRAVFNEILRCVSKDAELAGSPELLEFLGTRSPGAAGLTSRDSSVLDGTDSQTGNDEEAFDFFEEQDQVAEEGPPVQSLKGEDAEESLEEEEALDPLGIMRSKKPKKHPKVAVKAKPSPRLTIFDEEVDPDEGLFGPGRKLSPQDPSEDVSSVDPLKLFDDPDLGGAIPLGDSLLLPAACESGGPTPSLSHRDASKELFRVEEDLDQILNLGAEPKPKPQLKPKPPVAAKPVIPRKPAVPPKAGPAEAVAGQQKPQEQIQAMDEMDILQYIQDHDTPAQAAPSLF
UniProt P05114: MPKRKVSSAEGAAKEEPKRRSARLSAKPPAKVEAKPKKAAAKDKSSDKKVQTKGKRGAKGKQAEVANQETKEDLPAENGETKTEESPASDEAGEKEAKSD
UniProt Q58FF7, whole entry, looked up: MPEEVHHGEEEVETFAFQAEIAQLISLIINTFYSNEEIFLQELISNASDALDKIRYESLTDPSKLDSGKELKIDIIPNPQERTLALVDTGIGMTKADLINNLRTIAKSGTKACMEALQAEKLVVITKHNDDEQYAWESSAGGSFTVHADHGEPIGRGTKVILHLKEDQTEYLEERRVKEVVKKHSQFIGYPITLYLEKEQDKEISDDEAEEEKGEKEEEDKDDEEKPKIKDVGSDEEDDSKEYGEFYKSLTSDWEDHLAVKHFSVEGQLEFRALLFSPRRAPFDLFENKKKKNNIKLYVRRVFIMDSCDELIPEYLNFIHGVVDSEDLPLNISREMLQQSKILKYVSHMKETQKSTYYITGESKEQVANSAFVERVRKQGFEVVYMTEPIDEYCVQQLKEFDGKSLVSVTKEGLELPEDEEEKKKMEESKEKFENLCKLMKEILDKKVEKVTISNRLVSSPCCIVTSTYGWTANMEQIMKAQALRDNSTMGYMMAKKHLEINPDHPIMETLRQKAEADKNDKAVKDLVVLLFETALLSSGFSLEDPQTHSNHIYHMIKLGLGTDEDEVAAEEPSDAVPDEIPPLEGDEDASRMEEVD
UniProt O43390: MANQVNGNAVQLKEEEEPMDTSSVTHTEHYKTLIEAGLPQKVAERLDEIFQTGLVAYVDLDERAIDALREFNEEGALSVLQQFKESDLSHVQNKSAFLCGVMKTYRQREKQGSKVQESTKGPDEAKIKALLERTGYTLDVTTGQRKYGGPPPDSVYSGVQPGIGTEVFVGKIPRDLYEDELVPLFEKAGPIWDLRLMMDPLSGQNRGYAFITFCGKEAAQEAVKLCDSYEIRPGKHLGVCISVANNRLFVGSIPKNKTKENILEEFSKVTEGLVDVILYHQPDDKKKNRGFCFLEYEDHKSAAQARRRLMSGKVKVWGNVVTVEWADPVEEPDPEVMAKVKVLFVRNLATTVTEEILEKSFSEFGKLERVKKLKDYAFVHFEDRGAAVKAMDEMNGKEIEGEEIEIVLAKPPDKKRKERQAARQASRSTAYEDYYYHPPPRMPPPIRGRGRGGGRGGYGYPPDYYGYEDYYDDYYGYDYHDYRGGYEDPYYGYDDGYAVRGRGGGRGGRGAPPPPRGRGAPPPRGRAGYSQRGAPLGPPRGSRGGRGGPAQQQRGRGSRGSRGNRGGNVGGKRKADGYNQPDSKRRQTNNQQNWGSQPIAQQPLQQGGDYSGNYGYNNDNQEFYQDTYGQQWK
UniProt Q53GQ0: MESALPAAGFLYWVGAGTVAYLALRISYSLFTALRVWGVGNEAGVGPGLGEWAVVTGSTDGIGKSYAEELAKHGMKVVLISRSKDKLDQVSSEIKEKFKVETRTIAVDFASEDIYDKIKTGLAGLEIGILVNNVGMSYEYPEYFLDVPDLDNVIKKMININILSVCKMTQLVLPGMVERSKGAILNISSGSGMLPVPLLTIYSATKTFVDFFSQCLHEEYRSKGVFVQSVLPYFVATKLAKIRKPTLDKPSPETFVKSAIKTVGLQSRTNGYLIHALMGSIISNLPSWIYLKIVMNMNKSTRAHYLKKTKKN
UniProt Q92902: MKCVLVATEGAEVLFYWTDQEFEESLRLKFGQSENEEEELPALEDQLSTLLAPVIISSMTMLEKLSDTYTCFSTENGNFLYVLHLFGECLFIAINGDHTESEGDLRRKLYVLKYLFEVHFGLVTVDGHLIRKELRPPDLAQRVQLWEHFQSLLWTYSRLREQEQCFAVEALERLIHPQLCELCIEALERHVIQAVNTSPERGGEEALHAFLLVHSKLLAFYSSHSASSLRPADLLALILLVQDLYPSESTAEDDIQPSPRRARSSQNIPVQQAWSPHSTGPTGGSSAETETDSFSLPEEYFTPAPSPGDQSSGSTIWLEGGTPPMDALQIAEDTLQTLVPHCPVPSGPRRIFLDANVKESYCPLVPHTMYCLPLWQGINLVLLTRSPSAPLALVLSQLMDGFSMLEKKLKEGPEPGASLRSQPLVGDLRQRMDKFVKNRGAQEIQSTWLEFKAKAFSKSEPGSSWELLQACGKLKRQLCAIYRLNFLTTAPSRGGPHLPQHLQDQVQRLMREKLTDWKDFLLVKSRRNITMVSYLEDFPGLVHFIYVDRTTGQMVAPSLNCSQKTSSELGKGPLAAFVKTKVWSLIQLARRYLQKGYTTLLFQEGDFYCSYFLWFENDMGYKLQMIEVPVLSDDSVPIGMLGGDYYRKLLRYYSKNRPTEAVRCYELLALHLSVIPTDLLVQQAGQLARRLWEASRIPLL
UniProt Q9BX68: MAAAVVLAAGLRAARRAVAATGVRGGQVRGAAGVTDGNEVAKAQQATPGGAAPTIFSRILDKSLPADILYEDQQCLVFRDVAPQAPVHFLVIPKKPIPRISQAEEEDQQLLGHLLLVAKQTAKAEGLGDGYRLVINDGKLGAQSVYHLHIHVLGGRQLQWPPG
UniProt Q96ED9: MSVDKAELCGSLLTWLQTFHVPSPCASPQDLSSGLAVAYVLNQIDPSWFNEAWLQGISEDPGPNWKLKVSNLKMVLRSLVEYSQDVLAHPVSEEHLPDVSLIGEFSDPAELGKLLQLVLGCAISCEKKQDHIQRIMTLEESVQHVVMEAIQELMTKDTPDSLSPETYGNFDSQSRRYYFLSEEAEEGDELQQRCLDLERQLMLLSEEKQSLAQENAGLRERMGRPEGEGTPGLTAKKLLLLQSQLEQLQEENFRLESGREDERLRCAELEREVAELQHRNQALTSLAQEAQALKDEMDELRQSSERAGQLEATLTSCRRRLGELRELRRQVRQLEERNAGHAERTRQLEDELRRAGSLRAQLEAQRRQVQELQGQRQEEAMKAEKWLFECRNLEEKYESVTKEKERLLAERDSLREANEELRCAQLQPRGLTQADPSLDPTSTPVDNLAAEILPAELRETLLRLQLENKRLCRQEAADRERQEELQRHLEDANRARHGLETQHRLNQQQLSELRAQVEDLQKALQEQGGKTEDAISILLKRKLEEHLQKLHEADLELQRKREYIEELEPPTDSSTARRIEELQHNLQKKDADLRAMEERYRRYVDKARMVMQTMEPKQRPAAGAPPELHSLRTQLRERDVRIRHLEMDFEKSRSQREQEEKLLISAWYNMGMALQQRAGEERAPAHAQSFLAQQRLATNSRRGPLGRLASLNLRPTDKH

Key:
Assay in all cases: log2 fold change, soluble protein after heating vs DMSO (PISA); higher = thermal stabilisation; K562 cells, 10 uM, 30 min; active = over 0.2 and 3.5 SD of the protein, either way, in both replicates (recomputed)
[1] = compound: CC[C@@H]1C(=O)N(C)c2cnc(Nc3ccc(C(=O)NC4CCN(C)CC4)cc3OC)nc2N1C1CCCC1
Method in brief: (§1)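 Soluble protein was quantified by TMTpro 16plex LC-MS/MS after channel sums were equalised. It was obtained as the supernatant after 21,000xg for 90 min from pooled aliquots of K562 cells (2×10^6 cells/mL, 10 μM compound, 30 min) heated for 3 min across 48°C-58°C and extracted in PBS with 0.5% NP-40 at 4°C. Thermal stability values are relative to control samples and come from duplicates. They are given as log2 fold changes.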

volasertib = compound: CC[C@@H]1C(=O)N(C)c2cnc(Nc3ccc(C(=O)N[C@H]4CC[C@H](N5CCN(CC6CC6)CC5)CC4)cc3OC)nc2N1C(C)C [volasertib]
Method in brief: as §1

[2] = compound: CC[C@H](C)N1C=C(C2=C(C=C(C=C21)C3=CN=C(C=C3)N4CCNCC4)C(=O)NCC5=C(C=C(NC5=O)C)C)C
Method in brief: as §1

epoxomicin = compound: CC[C@H](C)[C@@H](C(=O)N[C@@H]([C@@H](C)O)C(=O)N[C@@H](CC(C)C)C(=O)[C@]1(CO1)C)NC(=O)[C@H]([C@@H](C)CC)N(C)C(=O)C [epoxomicin]
Method in brief: as §1

[3] = compound: CCn1cc(-c2ccnc3[nH]c(-c4cccc(CN(C)C)c4)cc23)c(-c2ccc(NC(=O)N(C)C)cc2)n1
Method in brief: as §1

[4] = compound: CN(C)CC(=O)Nc1ccc2[nH]c(=O)c3ccccc3c2c1
Method in brief: as §1

[5] = compound: CN1C2=C(C3=C1C(=O)N(N=C3)CC4=CC(=CC=C4)N)SC(=C2)S(=O)C
Method in brief: as §1

[6] = compound: CN1CCC(CNc2ccc3ncc(-c4cccc(OC(F)(F)F)c4)n3n2)CC1
Method in brief: as §1

saracatinib = compound: CN1CCN(CCOc2cc(OC3CCOCC3)c3c(Nc4c(Cl)ccc5c4OCO5)ncnc3c2)CC1 [saracatinib]
Method in brief: as §1

sotrastaurin = compound: CN1CCN(c2nc(C3=C(c4c[nH]c5ccccc45)C(=O)NC3=O)c3ccccc3n2)CC1 [sotrastaurin]
Method in brief: as §1

Tubastatin A = compound: CN1CCc2c(c3ccccc3n2Cc2ccc(C(=O)NO)cc2)C1 [Tubastatin A]
Method in brief: as §1

[7] = compound: CNC(=O)C1=CC=CC=C1NC2=NC(=NC=C2Cl)NC3=C(C=C(C=C3)N4CCOCC4)OC
Method in brief: as §1

defactinib = compound: CNC(=O)c1ccc(Nc2ncc(C(F)(F)F)c(NCc3nccnc3N(C)S(C)(=O)=O)n2)cc1 [defactinib]
Method in brief: as §1

rucaparib = compound: CNCc1ccc(-c2[nH]c3cc(F)cc4c3c2CCNC4=O)cc1 [rucaparib]
Method in brief: as §1

[8] = compound: CNc1nc(-c2ccc3c(N)n[nH]c3c2)cc(N2C[C@@H](C(=O)NC3CCCCC3)CC[C@H]2C)n1
Method in brief: as §1

encorafenib = compound: COC(=O)N[C@@H](C)CNc1nccc(-c2cn(C(C)C)nc2-c2cc(Cl)cc(NS(C)(=O)=O)c2F)n1 [encorafenib]
Method in brief: as §1

[9] = compound: COC(=O)[C@H](CCSC)NC(=O)C1=C(C=C(C=C1)NC[C@H](CS)N)C2=CC=CC=C2
Method in brief: as §1

[10] = compound: CCn1c(C(=O)N(C2CC2)C2CC2)cc2c3c(ncn3C)c(Nc3cc(C)n(C)n3)nc21
Method in brief: as §1

rosiglitazone = compound: CN(CCOC1=CC=C(C=C1)C[C@H]2C(=O)NC(=O)S2)C3=CC=CC=N3 (racemic) [rosiglitazone]
Method in brief: as §1

alvocidib = compound: CN1CC[C@H](c2c(O)cc(O)c3c(=O)cc(-c4ccccc4Cl)oc23)[C@H](O)C1 [alvocidib]
Method in brief: as §1

Measured: log2 fold change

HHEX (UniProt Q03014)
inactive: [1] 0.027 | volasertib 0.07 | [2] 0.053 | epoxomicin 0.164 | [3] 0.05 | [4] 0.234 | [5] 0.117 | [6] -0.023 | saracatinib 0.095 | sotrastaurin -0.068 | Tubastatin A 0.126 | [7] 0.035 | defactinib -0.173 | rucaparib 0.04 | [8] -0.011 | encorafenib -0.061 | [9] 0.651

HNRNPH2 (UniProt P55795)
inactive: [1] -0.119 | [2] 0.073 | epoxomicin -0.004 | [3] 0 | [4] 0.069 | [5] 0.087 | [6] -0.06 | saracatinib -0.065 | sotrastaurin -0.081 | Tubastatin A 0.101 | [7] -0.079 | defactinib -0.173 | rucaparib 0.002 | [8] -0.001 | encorafenib 0.02 | [9] -0.068
active: volasertib -0.667

HMGN5 (UniProt Q5JSK9)
inactive: [1] 0.194 | volasertib 0.134 | epoxomicin -0.161 | [10] -0.03 | [3] 0.092 | [4] -0.059 | rosiglitazone 0.036 | [5] 0.072 | [6] -0.172 | saracatinib -0.173 | sotrastaurin 0.092 | alvocidib -0.018 | Tubastatin A 0.024 | [7] -0.189 | defactinib 0 | rucaparib -0.07 | [8] -0.114 | encorafenib 0.065 | [9] 0.039

ICAM5 (UniProt Q9UMF0)
inactive: [1] -0.033 | [2] 0.032 | epoxomicin 0.049 | [10] -0.062 | [4] -0.036 | rosiglitazone 0.073 | [5] -0.068 | saracatinib -0.033 | sotrastaurin -0.111 | alvocidib -0.044 | Tubastatin A 0.244 | [7] 0.075 | defactinib -0.034 | rucaparib -0.263 | [8] 0.011 | encorafenib -0.025 | [9] 0.052

HS1BP3 (UniProt Q53T59)
inactive: [1] -0.038 | [2] 0.073 | epoxomicin 0.056 | [4] 0.012 | [5] -0.041 | saracatinib 0.107 | sotrastaurin -0.078 | [7] -0.005 | defactinib -0.066 | rucaparib -0.038 | encorafenib 0.037 | [9] -0.175
active: volasertib -0.343 | [8] 0.371

Two neighbouring entries out of the list so far, for reference:
HHEX (UniProt Q03014)
inactive: [1] 0.027 | volasertib 0.07 | [2] 0.053 | epoxomicin 0.164 | [3] 0.05 | [4] 0.234 | [5] 0.117 | [6] -0.023 | saracatinib 0.095 | sotrastaurin -0.068 | Tubastatin A 0.126 | [7] 0.035 | defactinib -0.173 | rucaparib 0.04 | [8] -0.011 | encorafenib -0.061 | [9] 0.651

HNRNPH2 (UniProt P55795)
inactive: [1] -0.119 | [2] 0.073 | epoxomicin -0.004 | [3] 0 | [4] 0.069 | [5] 0.087 | [6] -0.06 | saracatinib -0.065 | sotrastaurin -0.081 | Tubastatin A 0.101 | [7] -0.079 | defactinib -0.173 | rucaparib 0.002 | [8] -0.001 | encorafenib 0.02 | [9] -0.068
active: volasertib -0.667

(continued)

HMGN1 (UniProt P05114)
inactive: [1] 0.054 | volasertib 0.141 | [2] -0.044 | epoxomicin -0.008 | [3] 0.045 | [4] -0.094 | [5] 0.039 | [6] 0.101 | saracatinib 0.024 | sotrastaurin 0.068 | Tubastatin A -0.087 | [7] 0.03 | defactinib 0.09 | rucaparib 0.043 | [8] -0.064 | encorafenib -0.01 | [9] 0.011

HYOU1, A0A494C039
inactive: [1] 0.038 | [2] -0.012 | epoxomicin 0.044 | [10] -0.013 | [3] -0.153 | [4] -0.019 | rosiglitazone 0.028 | [5] 0.106 | [6] 0.079 | saracatinib -0.034 | sotrastaurin -0.253 | alvocidib -0.097 | Tubastatin A -0.069 | [7] -0.067 | defactinib 0.074 | rucaparib 0.054 | [8] 0.006 | encorafenib 0.209 | [9] -0.159

HSPA8 (UniProt E9PN89)
inactive: [1] 0.167 | volasertib 0.114 | [2] -0.205 | epoxomicin -0.278 | [3] 0.178 | [4] -0.139 | [6] -0.154 | sotrastaurin 0.105 | Tubastatin A -0.018 | [7] -0.057 | defactinib 0.044 | rucaparib 0.101 | encorafenib 0.023 | [9] -0.036

HSP90AB3P (UniProt Q58FF7)
inactive: [1] -0.174 | volasertib -0.158 | [2] 0.071 | [10] 0.086 | [3] -0.005 | rosiglitazone 0.097 | [5] -0.055 | [6] -0.13 | saracatinib 0.029 | sotrastaurin 0.008 | alvocidib 0.115 | [7] 0.197 | rucaparib -0.023 | [8] 0.068 | encorafenib 0.049

HNRNPR (UniProt O43390)
inactive: [1] 0.138 | volasertib -0.173 | [2] 0.008 | epoxomicin -0.097 | rosiglitazone -0.011 | sotrastaurin 0.057 | alvocidib 0.054 | rucaparib 0.154 | encorafenib 0.026

HSD17B12 (UniProt Q53GQ0)
inactive: [1] -0.046 | volasertib -0.183 | [2] 0 | epoxomicin -0.013 | [3] -0.104 | [4] 0.01 | [5] -0.039 | [6] 0.037 | saracatinib -0.037 | sotrastaurin 0.151 | Tubastatin A -0.007 | [7] 0.005 | defactinib -0.024 | rucaparib -0.043 | [8] 0.038 | encorafenib 0.027 | [9] 0.013

HPS1 (UniProt Q92902)
inactive: [1] 0.056 | volasertib -0.128 | [2] 0.039 | [10] -0.039 | [4] -0.011 | rosiglitazone 0.085 | sotrastaurin 0.041 | alvocidib -0.008 | Tubastatin A -0.009 | [7] 0.011 | defactinib -0.019 | rucaparib -0.157 | encorafenib 0.017 | [9] 0.062

HINT2 (UniProt Q9BX68)
inactive: [1] 0.065 | volasertib -0.001 | [2] -0.054 | [10] 0.015 | [3] -0.076 | [4] 0.178 | rosiglitazone -0.015 | [5] -0.089 | [6] 0.115 | saracatinib -0.071 | sotrastaurin 0.016 | alvocidib -0.166 | Tubastatin A 0.048 | [7] 0.034 | defactinib 0.04 | rucaparib 0 | [8] -0.122 | encorafenib -0.088 | [9] 0.07

HOOK2 (UniProt Q96ED9)
inactive: [1] -0.003 | volasertib -0.004 | epoxomicin 0.076 | alvocidib 0.116 | Tubastatin A 0.128 | rucaparib 0.032 | encorafenib -0.157

HUWE1 isoform 2 (UniProt Q7Z6Z7)
inactive: [10] -0.058 | [5] -0.001 | saracatinib 0.092 | sotrastaurin -0.152 | alvocidib -0.253 | [7] -0.066 | [8] 0.022
